We go through 15 substances from US5624897A (Bayer Aktiengesellschaft, priority 1993, dated 1997).

One series in a line: general procedure: solution-phase peptide synthesis; BOP-Cl / N,N-diisopropylethylamine. The settings on record: coupling step.
With “tert-butyl N-benzyl-N-methyl-L-alanyl-D-lactyl-N-methyl-L-isoleucyl-D-lactate”, the step yield is 100% of theory.

For the substance “tert-butyl N-benzyl-N-methyl-L-isoleucyl-D-lactyl-N-methyl-L-alanyl-D-lactate”, the step yield is reported as 60.4% of theory.

In the case of “tert-butyl N-benzyloxycarbonyl-N-methyl-L-alanyl-D-lactyl-N-methyl-L-isoleucyl-D-lactyl-N-methyl-L-isoleucyl-D-lactate”, the step yield is on record as 59.9% of theory.

Regarding “tert-butyl N-benzyl-N-methyl-L-alanyl-D-lactyl-N-methyl-L-alanyl-D-lactate”, the step yield is on record as 36.9% of theory.

Regarding “tert-butyl N-benzyl-N-methyl-L-alanyl-D-lactyl-N-methyl-L-isoleucyl-D-lactyl-N-methyl-L-isoleucyl-D-lactate”, the step yield is reported as 57.8% of theory.

“tert-butyl N-benzyl-N-methyl-L-isoleucyl-D-lactyl-N-methyl-L-isoleucyl-D-lactate”: the step yield was 98.8% of theory.

Staying with this series, now noted: cyclisation step, on linear precursor.
With “Cyclo(-N-methyl-L-alanyl-D-lactyl-N-methyl-L-isoleucyl-D-lactyl-N-methyl-L-isoleucyl-D-lactyl-)”, the cyclisation yield is 59.8% of theory.

Still in this series, the particulars now being: late stage modification step.
“tert-butyl N-methyl-L-alanyl-D-lactyl-N-methyl-L-isoleucyl-D-lactate”: the step yield is 98.0% of theory.

For “tert-butyl N-methyl-L-isoleucyl-D-lactyl-N-methyl-L-isoleucyl-D-lactate”, the step yield is reported as 85.4% of theory.

As for “N-benzyloxycarbonyl-N-methyl-L-alanyl-D-lactyl-N-methyl-L-isoleucyl-D-lactyl-N-methyl-L-isoleucyl-D-lactic acid”, the step yield was 85.3% of theory.

In the case of “tert-butyl N-methyl-L-alanyl-D-lactyl-N-methyl-L-alanyl-D-lactate”, the step yield is recorded as 89.5% of theory.

On to “tert-Butyl N-methyl-L-isoleucyl-D-lactyl-N-methyl-L-alanyl-D-lactate”, for which the step yield was 83.2% of theory.

Consider “N-methyl-L-alanyl-D-lactyl-N-methyl-L-isoleucyl-D-lactyl-N-methyl-L-isoleucyl-D-lactic acid”, for which the step yield is given as 98.7% of theory.

For “N-benzyl-N-methyl-L-isoleucyl-D-lactic acid”, the step yield is on record as 100% of theory.

As to “N-benzyl-N-methyl-L-alanyl-D-lactyl-N-methyl-L-isoleucyl-D-lactyl-N-methyl-L-isoleucyl-D-lactic acid”, the step yield was 99.5% of theory.
